Values joined by “and” are separate entries in the source; they are usually repeats but may differ in a detail not shown here. Identical values can stand only once. In all, about 310,000 compounds went through this assay and about 17,000 (5.5%) were called active. Inconclusive means that the source gave no clear call. Such entries were picked first, then a sample of the others. The call rests on the fitted dose curve; in most records, active means well fitted inhibition curve with a large enough effect; inconclusive means small, poorly fitted or top-dose-only effect, or effect the other way; inactive means no such curve, though single readings can be large or run the other way. Where the call is inconclusive, the potency comes from a doubtful curve fit.
biological target: Nuclear receptor ROR-gamma (Mus musculus) (UniProt P51450); assay: qHTS for inhibitors of ROR gamma transcriptional activity; conditions: Drosophila S2 Gal4-RORgamma UAS-luciferase reporter, 20 h; activity change, negative = inhibition: at 53.6 µM (top of the series); further: nearly all actives have a fitted effect of over 60% in size
How it was run: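 Stable Schneider cell line, Gal4 DNA-binding domain fused to ROR gamma, UAS-luciferase. Cmpd 1 hr RT → CuSO4 700 uM final → 20 hr RT → luciferase reagent 10 min → luminescence.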
On the % scale 0 is the no-effect control and ±100 the full control effect; potency means the concentration at half of the fitted maximal effect.

Chains of the proteins cited; added tags and fusions are not shown. Lines headed by an entry give the natural chain unless they say otherwise; changes in a name come on top.
UniProt P51450: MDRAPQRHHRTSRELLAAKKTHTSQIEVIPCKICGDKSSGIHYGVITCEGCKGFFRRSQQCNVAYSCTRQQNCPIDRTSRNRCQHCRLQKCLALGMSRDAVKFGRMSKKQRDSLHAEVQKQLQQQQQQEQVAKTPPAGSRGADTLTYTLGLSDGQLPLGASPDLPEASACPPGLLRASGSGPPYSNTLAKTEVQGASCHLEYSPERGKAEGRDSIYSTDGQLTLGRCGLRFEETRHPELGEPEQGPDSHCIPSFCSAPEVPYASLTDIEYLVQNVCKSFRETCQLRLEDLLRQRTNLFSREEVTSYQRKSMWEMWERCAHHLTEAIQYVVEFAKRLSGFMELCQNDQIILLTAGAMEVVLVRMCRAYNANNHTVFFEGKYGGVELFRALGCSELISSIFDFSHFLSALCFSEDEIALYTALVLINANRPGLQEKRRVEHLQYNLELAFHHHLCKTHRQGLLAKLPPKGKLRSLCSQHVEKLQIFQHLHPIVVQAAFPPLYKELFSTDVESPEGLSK

Compound | activity change, negative = inhibition | Potency
C=CCO/N=C(/CCC)C1=C(N)CC(C)(C)CC1=O | inactive: -0.151% | 
CCOC(=O)CSc1nnc(NC(=O)c2ccc3c(c2)OCO3)s1 |  | active: 11.2 µM
O=c1c(C=Nc2cccc(C(F)(F)F)c2)c[nH]n1-c1cccc(Cl)n1 |  | inconclusive: 22.4 µM [inhibitor, single point]
C/C(=N\NC(=O)c1ccc(NS(=O)(=O)c2cccs2)cc1)c1cccs1 |  | inconclusive: 12.6 µM [inhibitor, single point]
COCCSc1nc2c(c(=O)[nH]c(=O)n2C)n1CCC(C)C |  | inconclusive: 5.62 µM [inhibitor, single point]
Cc1ccc(C(=O)NC(=S)Nc2ccc(-c3ccc(CO)o3)cc2)cc1 |  | inconclusive: 35.5 µM [inhibitor, single point]
c1ccc(CSc2nnc(-c3ccco3)n2Cc2ccco2)cc1 |  | inconclusive: 14.1 µM [activator, partial curve]
N/C(=N\S(=O)(=O)c1cc(C(F)(F)F)cc(C(F)(F)F)c1)c1ccccc1 |  | inconclusive: 10 µM [activator, partial curve]
O=C(Nc1ccccc1)c1ccc(NCc2ccco2)c(S(=O)(=O)N2CCOCC2)c1 |  | inconclusive: 2.51 µM [activator, full curve, poor fit]
O=C(Nc1cccnc1)c1cccc(S(=O)(=O)N2CCCC2)c1 |  | inconclusive: 0.398 µM [activator, full curve]
CCOC(=O)/C=c1\s/c(=C\c2ccc(C(F)(F)F)cc2)c(=O)n1CC(=O)NCc1ccco1 | inactive: -12.8% | 
CC(=O)c1ccc(N2CCN(C(=O)/C=C/c3ccc(S(=O)(=O)N4CCOCC4)cc3)CC2)cc1 | inactive: -6.98% | 
O=C(/C=C/c1ccco1)Nc1scc(-c2ccccc2)c1C(=O)O |  | active: 10 µM
O=C1CC(N2CCN(S(=O)(=O)c3ccccc3)CC2)C(=O)N1c1ccccc1 (stereo not given) |  | inconclusive: 35.5 µM [activator, single point]
COc1ccc(CN2CNc3nc4ccccc4n3C2)cc1 | inactive: -9.97% | 
O=C(Nc1nnc(S(=O)(=O)N2CCCCC2)s1)c1ccc(Cl)cc1 | inactive: 3.55% | 
O=C(CSc1nc2ncccc2[nH]1)c1cccc([N+](=O)[O-])c1 |  | inconclusive: 10 µM [inhibitor, partial curve, poor fit]
CCOC(=O)c1cnn2c1[nH]c(=O)c1ccccc12 |  | inconclusive: 8.91 µM [activator, partial curve, poor fit]
O=C1NC(=O)C(c2ccccc2[N+](=O)[O-])=C1Nc1ccc(O)c(Cl)c1 |  | inconclusive: 25.1 µM [activator, partial curve] and inconclusive: 12.6 µM [activator, partial curve]
O=C(Nc1ccccc1)c1ccc(F)c(S(=O)(=O)N2CCOCC2)c1 |  | inconclusive: 3.55 µM [activator, partial curve]
CC(C)CNS(=O)(=O)c1ccc(OCC(=O)Nc2ccc(F)cc2F)cc1 |  | inconclusive: 3.55 µM [activator, single point]
CCOc1ccc(N(C(=O)c2ccccc2Cl)C2=NC(C)(C)CS2)cc1 |  | active: 3.16 µM
Cn1c(=O)n(C)c2cc(NS(=O)(=O)c3ccc4c(c3)CCCC4)ccc21 |  | inconclusive: 35.5 µM [inhibitor, single point]
COc1ccccc1C(=O)NCc1ccccn1 |  | active: 8.91 µM
O=C(COC(=O)c1cccs1)Nc1cccc(S(=O)(=O)N2CCOCC2)c1 |  | inconclusive: 22.4 µM [activator, single point]

Compound | activity change, negative = inhibition | Potency
COc1cccc2oc3ccc(C#CC4(N)CCCCC4)cc3c(=O)c12 |  | inconclusive: 22.4 µM [inhibitor, single point]
O=C(c1cc(-c2ccncc2)nc2ccc(Br)cc12)N1CCN(Cc2ccc3c(c2)OCO3)CC1 | inactive: 4.65% | 
O=C(Nc1ccc2c(c1)CCC2)Nc1ccccc1F |  | inconclusive: 22.4 µM [inhibitor, single point]
O=C(c1cc(F)ccc1F)C1CCCN(C(=O)CSc2ccccn2)C1 (stereo not given) |  | inconclusive: 4.47 µM [activator, partial curve]
OC(CN1CCC(Cc2ccccc2)CC1)C(F)(F)F (stereo not given) | inactive: 6.02% | 
Cc1cccc(NC(=S)N(CCN(C)C)C(C)c2cccnc2)c1 (stereo not given) | inactive: -35.3% | 
CC1(C)C(=O)C2C[C@]3(O)C4=CC(=O)OC(c5ccoc5)[C@]4(C)CCC3[C@](C)(C2=O)C1CC(=O)O (stereo not given in full) | inactive: 18.8% | 
COc1ccc(NC(=O)c2cnn(-c3ccccc3)c2C)cc1 |  | inconclusive: 11.2 µM [inhibitor, single point]
N#CC(C(=O)Nc1ccc(Cl)cc1)=C1Nc2ccccc2N1 |  | inconclusive: 31.6 µM [inhibitor, single point]
COC(=O)N/N=C/c1cccc(OCCSc2ccc(Cl)cc2)c1 |  | inconclusive: 25.1 µM [activator, single point]
COc1cccc(NC(=S)NN2CCN(C)CC2)c1 | inactive: -17.6% | 
CCOC(=O)N1CCN(C(=O)CCl)CC1 |  | inconclusive: 35.5 µM [inhibitor, single point]
Cc1ccnc(NC(=S)NC(=O)/C=C/c2ccco2)c1 |  | active: 7.08 µM
O=C(NCc1ccc(Cl)cc1)c1ccccc1Oc1ccccc1 | inactive: 27.2% | 
CNc1cc2c(Nc3cccc(Br)c3)ncnc2cn1 |  | active: 12.6 µM
O=C(O)c1ccccc1-c1cn2cc(Cl)ccc2n1 |  | inconclusive: 0.708 µM [inhibitor, partial curve, poor fit]
CC(C)NC(=S)NN=C1CCC(c2ccccc2)CC1 (stereo not given) |  | active: 5.62 µM
COC(=O)c1cc(NC(=O)Nc2cccc(Cl)c2)ccc1Cl |  | inconclusive: 35.5 µM [inhibitor, single point]
CCCn1nnc(NC(=O)c2sc3ccccc3c2Cl)n1 |  | inconclusive: 35.5 µM [inhibitor, single point]
O=C(NCc1ccc2c(c1)OCO2)C(=O)NCC1OCCCN1S(=O)(=O)c1ccc(F)cc1 (stereo not given) |  | inconclusive: 0.141 µM [activator, partial curve, poor fit]
COc1ccc(C2CC(c3cccs3)=NN2C(=O)CSc2nc3ccccc3s2)cc1 (stereo not given) |  | inconclusive: 35.5 µM [inhibitor, single point]
CC1(C)Cc2c(c(N3CCOCC3)nc3sc(C(=O)Nc4cccc(Cl)c4)c(N)c23)CO1 | inactive: -16.6% | 
COCCCn1c(=O)c2sccc2n(Cc2ccc(C)cc2)c1=O | inactive: 8.76% | 
NS(=O)(=O)c1ccc(CCNc2ncnc3sccc23)cc1 |  | inconclusive: 11.2 µM [inhibitor, partial curve, poor fit]
O=C(Nc1ccc(NC(=O)c2ccco2)nc1)c1cccnc1 |  | active: 0.794 µM

Compound | activity change, negative = inhibition | Potency
COc1ccccc1NC(=O)CN1CCN(CC(=O)Nc2ccc(OCc3ccccc3)cc2)CC1 |  | inconclusive: 17.8 µM [activator, single point]
O=C(CC1C(=O)NCCN1C(=S)Nc1ccccc1)Nc1ccc(F)cc1 (stereo not given) |  | inconclusive: 5.62 µM [activator, single point]
CC(CC1C(C#N)=C(N)OC2=C1C(=O)CCC2)c1ccccc1 (stereo not given) |  | inconclusive: 3.16 µM [activator, partial curve]
O=C(CSc1ccc2ccccc2c1)Nc1nc2ccccc2[nH]1 |  | active: 11.2 µM
Clc1ccc(CCNc2ncnc3nc[nH]c23)cc1 | inactive: -21.8% | 
CN(CC(=O)O)S(=O)(=O)c1ccc2c(c1)n(C)c(=O)c(=O)n2C | inactive: -1.25% | 
C=CC(=O)NCC1OCCc2ccccc21 (stereo not given) | inactive: 6.03% | 
COc1ccc(-c2c(C3C4C=CCC(C)C4C(=O)N3Cc3ccccc3)ccc3ccccc23)cc1OC (stereo not given) | inactive: 5.87% | 
CCc1c2c(nc3ccc4c(c13)OCCO4)-c1nc3ccccc3c(=O)n1C2 |  | active: 2.51 µM
COc1ccc(N2CCCCn3c2nc2c3c(=O)[nH]c(=O)n2C)cc1 |  | inconclusive: 12.6 µM [inhibitor, partial curve, poor fit]
Cc1sc2ncn(CC(=O)N3CCC(C(N)=O)CC3)c(=O)c2c1S(=O)(=O)N1CCOCC1 | inactive: -2.54% | 
COC(=O)CC1=COC2OCC3=CC[C@@H]1C32 (stereo not given in full) | inactive: -9.06% [at 10 µM] | 
Cc1ccc(NC(=O)CNS(=O)(=O)c2ccc(F)cc2)cc1C |  | inconclusive: 14.1 µM [activator, single point]
N#Cc1cc2cc3c(cc2nc1N1CCOCC1)OCO3 | inactive: 4.52% | 
NC(=O)C1CCN(CC(=O)Nc2ccccc2Sc2ccc(Cl)cc2)CC1 | inactive: 31.3% | 
COc1cc([N+](=O)[O-])cc(/C=C2/SC(=S)N(Cc3ccccc3)C2=O)c1O |  | inconclusive: 17.8 µM [inhibitor, single point]
O=C(CSc1ncccn1)N1CCN(C(c2ccccc2)c2ccccc2)CC1 | inactive: -13.1% | 
Cc1ccc(SCCC(=O)NC(C)(C)C)cc1 |  | inconclusive: 0.1 µM [activator, full curve, poor fit]
CCOC(=O)c1sc(Nc2nc3c(OC)cccc3s2)cc1C |  | inconclusive: 10 µM [activator, partial curve]
COc1ccc(CN(CCC(c2ccc(F)cc2)C2CCOC(C)(C)C2)C(=O)c2ccco2)cc1 (stereo not given) | inactive: 25% | 
CCOc1cccc(-c2nnc3sc(C4CCCCC4)nn23)c1 |  | active: 20 µM
Cc1ccc(C2(c3noc(CN(C)Cc4cnn(C)c4)n3)CCCC2)cc1 | inactive: -4.83% | 
N#CCCn1cc(/C=N/O)c(-c2ccc(-c3ccccc3)cc2)n1 | inactive: 8.89% | 
Nc1c(C(=O)N2CCOCC2)sc2nc3c(cc12)CCC3 |  | inconclusive: 8.91 µM [inhibitor, partial curve, poor fit]
CN1Cc2c(C(=O)OC(C)(C)C)ncn2-c2ccsc2C1=O | inactive: 10.9% | 
